{
  "source": "patent US8247444B2",
  "about": "“Anti-tumor effect of dimeric phthalide compound” (priority 2007, dated 2012)",
  "note": "Some results were stated once for a whole list of compounds, not compound by compound.",
  "data": [
    {"tested_on": "H1299, H446, U251, U87MG, Bel-7402 and Kasumi-1 cells", "experiment": "Inhibition effects on proliferation (CCK-8), various human cancer cells", "type": "cell-based", "conditions": "FIG. 2, 68 h", "method": "The human lung cancer cell H1299 and H446, glioma cell U251 and U87MG, and human hepatic cellular cancer Bel-7402 cell in logarithmic growth phase were digested with pancreatic enzyme, and then suspended into DMEM or RPMI1640 containing 10% fetal bovine serum. The leukemic cells Kasumi-1 need no digestion, and were suspended into RPMI1640 containing 10% fetal bovine serum directly after centrifugalization. The cell density was adjusted to 1×10^4 cells/ml through cell counting, and the cell suspensions were seeded into a 96-well plate respectively, 100 μl/well, totally 6 groups of cells. The adherent cells were cultured overnight, the suspended cells were added different concentration gradients of dimeric phthalide compounds (S1-S6) directly, n=6 for each concentration of a single agent. The final volume was 200 ul, and the balance was supplemented with the culture medium. The plate was then incubated for 68 hours in 37° C., saturated humidity, 5% CO2 cell incubator. The medium was aspirated and 72 μl/well fresh culture medium was added. 8 μl […] (CCK-8) was added into each well and cultured for 2 hours. The absorbance was measured at 450 nm. The results were calculated as the 50% inhibiting drug concentration, i.e. IC50, using Sigmoidal simulation function by software Origin 7.0.", "values": [
      {"smiles": "CCC/C=C1\\OC(=O)C2=C1CCC1[C@H]2C23C=CCC[C@@H]2C1(C(=O)CCC)OC3=O", "note": "(single isomer, unassigned) [S3]", "inhibition effect on proliferation of various human cancer cells": "substantial inhibition effect on proliferation of various human cancer cells"},
      {"smiles": "CCC/C=C1\\OC(=O)C2=C1CCC1C2C2(OC(=O)c3ccccc32)[C@@H]1CCC", "note": "(some centres unmarked) [S2]", "inhibition effect on proliferation of various human cancer cells": "substantial inhibition effect on proliferation of various human cancer cells"},
      {"smiles": "CCC/C=C1\\OC(=O)C2=C1CCC1C2[C@@]23CC[C@@H]1C=C2C(=O)O/C3=C\\CCC", "note": "(some centres unmarked) [S4]", "inhibition effect on proliferation of various human cancer cells": "substantial inhibition effect on proliferation of various human cancer cells"},
      {"smiles": "CCC/C=C1\\OC(=O)C2=CC3CC[C@]21C1C2=C(CC[C@@H]31)C(CCCC)OC2=O", "note": "(some centres unmarked) [S5]", "inhibition effect on proliferation of various human cancer cells": "substantial inhibition effect on proliferation of various human cancer cells"},
      {"smiles": "CCC/C=C1\\OC(=O)C2=C1CCC1C2C2(OC(=O)C3=C2CCC=C3)C1(C)CCC", "note": "(centres unmarked) [S6]", "inhibition effect on proliferation of various human cancer cells": "substantial inhibition effect on proliferation of various human cancer cells"}
    ]}
  ]
}
